In the supplement of paper PMC4635364:
Counter-ions that a name gives are not always drawn. The list shows a part of the results. Single values are uncertain here, since repeats match poorly.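 Human fetal ventral-midbrain neural progenitor line ReNCell VM, differentiated without mitogens. Images stained for doublecortin (early neurons) or tyrosine hydroxylase (dopaminergic neurons) were scored by blinded raters against untreated wells (0 = no change). Repeats and both raters were averaged, and compounds averaging 2 or higher were picked as hits for retesting.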

Assays:
[1] = system: ReNCell VM; experiment: neuronal differentiation score (DCX+ cell fraction vs untreated, manual image score) (score (-3 to 3)); higher = more neuronal differentiation; settings: 2 uM, 2 weeks
[2] = system: ReNCell VM; experiment: dopaminergic neuron differentiation score (TH+ cell fraction vs untreated, manual image score) (score (0 to 3)); higher = more TH+ dopaminergic neuron differentiation; settings: 2 uM, 4 weeks, BDNF 10 ng/ml + GDNF 10 ng/ml

COc1cc(Cc2cnc(N)nc2N)cc(OC)c1OC [Trimethoprim]
inactive: neuronal differentiation score ([1]; library: LOPAC) 0 | neuronal differentiation score ([1]; library: Prestwick) 0 | dopaminergic neuron differentiation score ([2]; library: LOPAC) 0 | dopaminergic neuron differentiation score ([2]; library: Prestwick) 0

NC[C@@H]1O[C@H](C23CC4CC(CC(C4)C2)C3)Cc2c1ccc(O)c2O
inactive: neuronal differentiation score ([1]; library: LOPAC) 0 | neuronal differentiation score ([1]; library: Tocriscreen) 0 | dopaminergic neuron differentiation score ([2]; library: LOPAC) 0 | dopaminergic neuron differentiation score ([2]; library: Tocriscreen) 0

NC[C@@H]1O[C@H](O[C@H]2[C@@H](O)[C@H](O[C@@H]3[C@@H](O)[C@H](N)C[C@H](N)[C@H]3O[C@H]3O[C@H](CO)[C@@H](O)[C@H](O)[C@H]3N)O[C@@H]2CO)[C@H](N)[C@@H](O)[C@@H]1O [Paromomycin sulfate]
inactive: neuronal differentiation score ([1]; library: LOPAC) 0 | neuronal differentiation score ([1]; library: Prestwick) 0 | dopaminergic neuron differentiation score ([2]; library: LOPAC) 0 | dopaminergic neuron differentiation score ([2]; library: Prestwick) 0

Cc1ccc([N+](=O)[O-])cc1S(=O)(=O)N(C)C
inactive: neuronal differentiation score ([1]; library: LOPAC) 0 | neuronal differentiation score ([1]; library: Tocriscreen) 0 | dopaminergic neuron differentiation score ([2]; library: LOPAC) 0 | dopaminergic neuron differentiation score ([2]; library: Tocriscreen) 0

Retrieved one by one from the entries so far, 2 records:
Cc1ccc([N+](=O)[O-])cc1S(=O)(=O)N(C)C
inactive: neuronal differentiation score ([1]; library: LOPAC) 0 | neuronal differentiation score ([1]; library: Tocriscreen) 0 | dopaminergic neuron differentiation score ([2]; library: LOPAC) 0 | dopaminergic neuron differentiation score ([2]; library: Tocriscreen) 0

NC[C@@H]1O[C@H](C23CC4CC(CC(C4)C2)C3)Cc2c1ccc(O)c2O
inactive: neuronal differentiation score ([1]; library: LOPAC) 0 | neuronal differentiation score ([1]; library: Tocriscreen) 0 | dopaminergic neuron differentiation score ([2]; library: LOPAC) 0 | dopaminergic neuron differentiation score ([2]; library: Tocriscreen) 0

Carrying on.

NC(CO)C(=O)NNCc1ccc(O)c(O)c1O (centres undefined) [Benserazide hydrochloride]
inactive: neuronal differentiation score ([1]; library: LOPAC) 0 | neuronal differentiation score ([1]; library: Prestwick) 0 | dopaminergic neuron differentiation score ([2]; library: LOPAC) 0 | dopaminergic neuron differentiation score ([2]; library: Prestwick) 0

N=C(N)NCCCCNC(=N)N [Arcaine sulfate]
inactive: neuronal differentiation score ([1]; library: LOPAC) 0 | neuronal differentiation score ([1]; library: Phytochemical) 0 | dopaminergic neuron differentiation score ([2]; library: LOPAC) 0 | dopaminergic neuron differentiation score ([2]; library: Phytochemical) 0

CCCCNC(=O)NS(=O)(=O)c1ccc(C)cc1 [Tolbutamide]
inactive: neuronal differentiation score ([1]; library: LOPAC) 0 | neuronal differentiation score ([1]; library: Prestwick) 0 | dopaminergic neuron differentiation score ([2]; library: LOPAC) 0 | dopaminergic neuron differentiation score ([2]; library: Prestwick) 0

c1ccc(CN(CC2=NCCN2)c2ccccc2)cc1 [Antazoline hydrochloride]
inactive: neuronal differentiation score ([1]; library: Prestwick) 0 | neuronal differentiation score ([1]; library: Tocriscreen) 0 | dopaminergic neuron differentiation score ([2]; library: Prestwick) 0 | dopaminergic neuron differentiation score ([2]; library: Tocriscreen) 0

OCCN1CCN(CCCN2c3ccccc3Sc3ccc(Cl)cc32)CC1 [Perphenazine]
inactive: neuronal differentiation score ([1]; library: LOPAC) 0 | neuronal differentiation score ([1]; library: Prestwick) 0 | dopaminergic neuron differentiation score ([2]; library: LOPAC) 0 | dopaminergic neuron differentiation score ([2]; library: Prestwick) 0

CCN(CC)CCOC(=O)C1(c2ccc([N+](=O)[O-])cc2)CCCC1 [Nitrocaramiphen hydrochloride]
inactive: neuronal differentiation score ([1]; library: Prestwick) 0 | neuronal differentiation score ([1]; library: Tocriscreen) 0 | dopaminergic neuron differentiation score ([2]; library: Prestwick) 0 | dopaminergic neuron differentiation score ([2]; library: Tocriscreen) 0

CC(C)[N+](C)(CCOC(=O)C1c2ccccc2Oc2ccccc21)C(C)C [Propantheline bromide]
inactive: neuronal differentiation score ([1]; library: LOPAC) 1 | neuronal differentiation score ([1]; library: Prestwick) 0 | dopaminergic neuron differentiation score ([2]; library: LOPAC) 0 | dopaminergic neuron differentiation score ([2]; library: Prestwick) 0

OC(CN1CCN(c2cccc(Cl)c2)CC1)C(c1ccccc1)c1ccccc1 (centres undefined)
inactive: neuronal differentiation score ([1]; library: LOPAC) 0 | neuronal differentiation score ([1]; library: Tocriscreen) 0 | dopaminergic neuron differentiation score ([2]; library: LOPAC) 0 | dopaminergic neuron differentiation score ([2]; library: Tocriscreen) 0

Nc1ncnc2c1ncn2C1CCCO1 (centres undefined)
inactive: neuronal differentiation score ([1]; library: LOPAC) 0 | neuronal differentiation score ([1]; library: Tocriscreen) 0 | dopaminergic neuron differentiation score ([2]; library: LOPAC) 0 | dopaminergic neuron differentiation score ([2]; library: Tocriscreen) 0

Cc1ccc(/C(=C\CN2CCCC2)c2ccccn2)cc1 [Triprolidine hydrochloride]
inactive: neuronal differentiation score ([1]; library: LOPAC) 0 | neuronal differentiation score ([1]; library: Prestwick) 0 | dopaminergic neuron differentiation score ([2]; library: LOPAC) 0 | dopaminergic neuron differentiation score ([2]; library: Prestwick) 0

COCC(=O)O[C@]1(CCN(C)CCCc2nc3ccccc3[nH]2)CCc2cc(F)ccc2[C@@H]1C(C)C [Mibefradil dihydrochloride]
inactive: neuronal differentiation score ([1]; library: LOPAC) 0 | neuronal differentiation score ([1]; library: Tocriscreen) 0 | dopaminergic neuron differentiation score ([2]; library: LOPAC) 0 | dopaminergic neuron differentiation score ([2]; library: Tocriscreen) 0

O=C(O)CCCC[C@@H]1SC[C@@H]2NC(=O)N[C@@H]21 [Biotin]
inactive: neuronal differentiation score ([1]; library: Phytochemical) 0 | neuronal differentiation score ([1]; library: Prestwick) 0 | dopaminergic neuron differentiation score ([2]; library: Phytochemical) 0 | dopaminergic neuron differentiation score ([2]; library: Prestwick) 0

CC(=N)NCc1cccc(CN)c1 [1400W dihydrochloride]
inactive: neuronal differentiation score ([1]; library: LOPAC) 0 | neuronal differentiation score ([1]; library: Tocriscreen) 0 | dopaminergic neuron differentiation score ([2]; library: LOPAC) 0 | dopaminergic neuron differentiation score ([2]; library: Tocriscreen) 0

CCOC(=O)c1ncn2c1CN(C)C(=O)c1cc(F)ccc1-2 [Flumazenil]
inactive: neuronal differentiation score ([1]; library: LOPAC) 0 | neuronal differentiation score ([1]; library: Tocriscreen) 0 | dopaminergic neuron differentiation score ([2]; library: LOPAC) 0 | dopaminergic neuron differentiation score ([2]; library: Tocriscreen) 0

O=C(NCCO[N+](=O)[O-])c1cccnc1 [Nicorandil]
inactive: neuronal differentiation score ([1]; library: Prestwick) 0 | neuronal differentiation score ([1]; library: Tocriscreen) 0 | dopaminergic neuron differentiation score ([2]; library: Prestwick) 0 | dopaminergic neuron differentiation score ([2]; library: Tocriscreen) 0

Nc1c2c(nc3ccccc13)CCCC2 [Tacrine hydrochloride]
inactive: neuronal differentiation score ([1]; library: Prestwick) 0 | neuronal differentiation score ([1]; library: Tocriscreen) 1 | dopaminergic neuron differentiation score ([2]; library: Prestwick) 0 | dopaminergic neuron differentiation score ([2]; library: Tocriscreen) 0

O=C(O)c1ccccc1Nc1cccc(OCc2ccc3ccccc3n2)c1
inactive: neuronal differentiation score ([1]; library: LOPAC) 1 | neuronal differentiation score ([1]; library: Spectrum) 0 | dopaminergic neuron differentiation score ([2]; library: LOPAC) 0 | dopaminergic neuron differentiation score ([2]; library: Spectrum) 0
